Laboratory results published in PMC4891710, “Unexpected involvement of staple leads to redesign of selective bicyclic peptide inhibitor of Grb7” (Scientific Reports, 2016).
These are yes or no findings as the source states them, for the method shown. Some results given as binding are weak or reduced against the parent protein; the word gives no strength. Tags and fused reporters may be left off the sequences shown.

Assays:
[1] = target: T1, Grb7-SH2 (free, GST removed by thrombin), Q14451; experiment: crystal structure; Grb7-SH2/G7-B1 complex, 1.6 A, space group P 21; phosphate in the pY binding site; crystallisation reported previously (ref. 30); both purified; details: remark: other sources report otherwise
T1 chain: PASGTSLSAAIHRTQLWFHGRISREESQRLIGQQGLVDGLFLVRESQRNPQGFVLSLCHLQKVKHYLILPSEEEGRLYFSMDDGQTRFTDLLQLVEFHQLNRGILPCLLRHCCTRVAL

[2] = target: T1, Grb7-SH2 (free, GST removed by …); experiment: crystal structure; Grb7-SH2/G7-B4 complex, 2.47 A, space group P 41212; protein to peptide 1:1.5; 5% Tacsimate pH 5.0, 8% PEG 3350; malonic acid in the pY binding site; both purified; details: remark: other sources report otherwise

binding [1]: binds | binding [2]: binds
B1: Grb7-SH2 (free, GST removed by thrombin), Q14451 415-532 (domain or fragment)
chain: PASGTSLSAAIHRTQLWFHGRISREESQRLIGQQGLVDGLFLVRESQRNPQGFVLSLCHLQKVKHYLILPSEEEGRLYFSMDDGQTRFTDLLQLVEFHQLNRGILPCLLRHCCTRVAL
